The list shows a part of the results. These are further read-outs of the screen, such as a control signal, another cell line or another target. No call is given for them. Compounds called inactive in the main read-out are mostly missing here. Words in brackets tell the shape of the fitted curve; partial curves, single points and poor fits give uncertain potencies.
Test: qHTS Assay for Lipid Storage Modulators in Drosophila S3 Cells;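 on cell number change: cells counted by Cell Tracker Red CMTPX staining in the red channel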
Conditions: BODIPY lipid droplet fluorescence, 18-24 h; for cell number change: measured here: cell count max response, cells fed with added oleic acid
Procedure, shortened: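 Drosophila S3 cells got compounds at several concentrations plus oleic acid (400 uM solution). Laser-scanning cytometry with 488 nm excitation read lipid droplets at 500-530 nm and cells at 575-640 nm. Percent activity was relative to 20 uM Triacsin C.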

[1] = measured here: cell number channel AC50, cells fed with added oleic acid
[2] = measured here: lipid fluorescence (Fed channel) AC50, cells fed with added oleic acid

Compound | cell number change | AC50 [1] | AC50 [2]
Cc1cc(OCC(=O)O)c2c3c(c(=O)oc2c1)CCCC3 | 7.15% | – | –
O=C(CN1CCN(Cc2cccc(Cl)c2)C1=O)N1CCC2(CC1)OCCO2 | 2.33% | 0.00461 µM [falling, full curve, poor fit] | 29.1 µM [rising, single point]
CN1CCc2cc3c(cc2[C@H]1[C@@H]1OC(=O)c2c1ccc1c2OCO1)OCO3 | 18.7% | – | 1.03 µM [rising, full curve]
CCOC(=O)C1(CCOc2ccccc2)CCN(C(C)CSC)CC1 (centres undefined) | 17.6% | – | –
CN1CC(C(=O)c2ccc(Cl)cc2)C(c2ccc(Cl)cc2Cl)C1 (centres undefined) | -47.9% | 13 µM [falling, partial curve] | 16.4 µM [falling, partial curve]
O=c1cccc2n1CC1CC2CN(Cc2ccc3c(c2)OCO3)C1 (centres undefined) | 13.5% | – | –
CNC(=O)Nc1ccc(C(O)(C(=O)OC)C(F)(F)F)cc1 (centres undefined) | 3.63% | 6.51 µM [rising, single point] | 6.51 µM [rising, partial curve, poor fit]
O=C1NC(=O)C(=Cc2ccc(Oc3ccc([N+](=O)[O-])cc3)cc2)C(=O)N1 | 59% | 29.1 µM [rising, single point] | 11.6 µM [rising, partial curve, poor fit]
CN(C)C(=O)Oc1cccc(-c2cn3cc(Cl)ccc3n2)c1 | 17.1% | – | 29.1 µM [rising, single point]
Cc1ccc2c(c1)CNc1ccccc1O2 | -40.7% | 29.1 µM [falling, single point] | –
C/C=C/c1ccc2c(c1)OCO2 | -10.5% | – | 0.0116 µM [falling, full curve, poor fit]
O=C(c1ccccc1)c1ccc(OC(=O)N2CCOCC2)cc1 | – | 32.6 µM [falling, partial curve, poor fit] | –
COc1ccc(-c2cc(-c3ccccc3)[n+](C)c(-c3ccccc3)c2)cc1 | -69.7% | 13 µM [falling, partial curve, poor fit] | 13 µM [falling, partial curve]
Cn1c(=O)n(CC(=O)N2CCC3(CC2)OCCO3)c(=O)c2ccccc21 | – | 2.06 µM [rising, partial curve, poor fit] | –
O=C1NC(=O)C(=Cc2ccc(N3CCOCC3)cc2)C(=O)N1 | -39.3% | 3.26 µM [falling, single point] | 0.116 µM [rising, full curve, poor fit]
CN(CCc1ccccc1)Cc1c[nH]c2ccccc12 | – | – | 29.1 µM [falling, single point]
COc1cccc(-n2nc(C(=O)N3CCC4(CC3)OCCO4)c3ccccc3c2=O)c1 | 8.52% | – | 6.51 µM [rising, single point]
O=C(Cc1ccccc1)N1CCN(Cc2ccc(F)cc2)CC1 | 19.9% | – | –
Cn1c(O)c(/C=N/NC(=O)c2ccncc2)c(=O)[nH]c1=S | 4.23% | – | –
CC1CCCCC1NC1CCN(C)CC1 (centres undefined) | 7.14% | – | 5.8 µM [falling, single point]

Compound | cell number change | AC50 [1] | AC50 [2]
N#CC1=C(N)Oc2cc(O)ccc2C1c1ccc2c(c1)OCO2 (centres undefined) | -3.73% | 2.91 µM [rising, single point] | –
O=c1[nH]c2ccccc2c(=O)n1-c1ccc(Cl)cc1Cl | 8.68% | – | –
CC(C)CN1CCN(Cc2ccc(F)cc2Cl)CC1CCO (centres undefined) | 10.1% | – | 0.116 µM [falling, full curve, poor fit]
CCC(=NCCN1CCCCC1)c1c(O)n(C)c(=O)n(C)c1=O | -176% | 29.1 µM [falling, single point] | –
Oc1ccc(Cl)c(Cl)c1Cl | -6.78% | – | 18.4 µM [rising, single point]
Cc1cccc(-n2c(O)c(C=NCc3cccnc3)c(=O)[nH]c2=O)c1C | 2.21% | – | –
CCCCCCN1CCN(c2ccc(Cl)cc2)CC1 | 1.25% | 3.66 µM [rising, single point] | 0.731 µM [rising, partial curve, poor fit]
O=C1NC(=O)N(C2CCCCC2)C(=O)C1C1c2ccccc2C(=O)N1Cc1ccccc1 (centres undefined) | -8.89% | – | 4.11 µM [falling, full curve, poor fit]
COC(=O)C(O)(c1ccc(N(C)C(=O)c2ccc(Cl)c(Cl)c2)cc1)C(F)(F)F (centres undefined) | – | – | 0.517 µM [falling, single point]
COC(=O)C1=C(c2ccc(-c3ccccc3)c(F)c2)C[C@@H]2CC[C@H]1N2C(=O)NC(C)C | -10.6% | – | 4.11 µM [rising, partial curve]
CN(C(=O)Oc1ccc(C(=O)c2ccc(Cl)cc2)cc1)c1ccccc1 | 8.8% | – | –
COC(=O)C1=C(c2ccc(OCc3ccccc3)cc2)C[C@@H]2CC[C@H]1N2C(=O)NCCCc1ccccc1 | -50.4% | 6.51 µM [falling, partial curve] | 6.51 µM [falling, partial curve]
NCC1(CC(=O)O)CCCCC1 | 23.5% | 0.651 µM [rising, full curve, poor fit] | 0.00411 µM [rising, full curve, poor fit]
COc1cc2ccc(=O)oc2c2ccoc12 | 17.7% | – | 8.2 µM [rising, partial curve]
O=C(Cn1ccc2ccccc2c1=O)NCC(=O)N1CCC2(CC1)OCCO2 | 13.6% | – | –
COc1ccccc1OCC(=O)N1CCCC(N2CCN(c3ccc(F)cc3)CC2)C1 (centres undefined) | 26% | – | –
[O-]c1ccccc1-[n+]1c(-c2ccccc2)cc(-c2ccccc2)cc1-c1ccccc1 | -27.3% | – | 6.51 µM [falling, single point]
Brc1ccc(-[n+]2c(-c3ccccc3)cc(-c3ccccc3)cc2-c2ccccc2)cc1 | 6.93% | – | –
COc1cc(CN2CCN(c3cc(C)ccc3C)CC2)ccc1O | -8.77% | – | 6.51 µM [rising, single point]
CCOC(=O)C1(c2ccccc2)CCN(CC(=O)Nc2ccc(C)cc2)CC1 | – | 1.84 µM [rising, partial curve, poor fit] | 29.1 µM [rising, single point]

2 successive entries already listed, quoted:
Compound | cell number change | AC50 [1] | AC50 [2]
N#CC1=C(N)Oc2cc(O)ccc2C1c1ccc2c(c1)OCO2 (centres undefined) | -3.73% | 2.91 µM [rising, single point] | –
O=c1[nH]c2ccccc2c(=O)n1-c1ccc(Cl)cc1Cl | 8.68% | – | –

Looked up by structure from the list above, two records:
Compound | cell number change | AC50 [1] | AC50 [2]
Brc1ccc(-[n+]2c(-c3ccccc3)cc(-c3ccccc3)cc2-c2ccccc2)cc1 | 6.93% | – | –
COc1cc2ccc(=O)oc2c2ccoc12 | 17.7% | – | 8.2 µM [rising, partial curve]

(continued)

Compound | cell number change | AC50 [1] | AC50 [2]
CCOc1cc2c(cc1OCC)-n1cccc1C(c1cccc(OCC)c1O)NC2 (centres undefined) | – | – | 18.4 µM [rising, partial curve, poor fit]
CC1=CC2/C=C(\C)CCC(O)C(O)/C=C/C(=O)C23C(=O)NC(CC(C)C)C3C1C (centres undefined) | -61.9% | 32.6 µM [falling, single point] | 4.61 µM [falling, partial curve]
COCCN1C(=O)NC(=O)/C(=C\c2ccc(F)cc2)C1=O | -27.2% | – | 7.31 µM [falling, single point]
O=C1NC(=O)C2(Cc3ccccc3N3CCCC32)C(=O)N1Cc1ccccc1 (centres undefined) | 12.6% | – | 29.1 µM [falling, single point]
Nc1nonc1C(=O)N/N=C/c1ccc([N+](=O)[O-])o1 | -21.3% | – | –
COc1ccc(-n2c(O)c(/C=C/C=Nc3ccccc3)c(=O)[nH]c2=O)cc1 | -74.7% | 16.4 µM [falling, partial curve] | 0.651 µM [falling, partial curve, poor fit]
CCOC(=O)c1[nH]c2ccc(OC)cc2c1C(SCC(=O)O)c1ccc(C(F)(F)F)cc1 (centres undefined) | -35.2% | 23.1 µM [falling, single point] | 29.1 µM [falling, single point]
Cc1ccc(-n2c(O)c(C=NC3CCCC3)c(=O)[nH]c2=O)c(C)c1 | 11.4% | – | 0.206 µM [falling, full curve, poor fit]
COc1ccc(/C=C/C(=O)NC(=S)N2C[C@H]3C[C@H](C2)c2cccc(=O)n2C3)cc1 | 16.5% | – | 0.58 µM [falling, single point]
Cc1c(O)ccc(C(=O)CN2CC(C)OC(C)C2)c1O (centres undefined) | -13.4% | – | 0.00461 µM [falling, full curve, poor fit]
CC12CCCCC1(O)[N+](=O)C1=C(CCCC1)N2[O-] (centres undefined) | – | – | 0.116 µM [falling, full curve, poor fit]
Cc1cc(C)nc(-n2c(C)nc3cc(Cl)ccc3c2=O)c1 | – | 4.11 µM [rising, single point] | –
CN(C)C1(CNC(=O)Cc2ccccc2F)CCCCC1 | 50.4% | 25.9 µM [rising, single point] | 16.4 µM [rising, partial curve]
COc1ccc(NC(=O)CN2CC=C(c3ccccc3)CC2)cc1S(=O)(=O)N1CCOCC1 | 50.5% | 0.164 µM [rising, full curve, poor fit] | 20.6 µM [rising, partial curve]
COC(=O)C1=C(c2cccc(NC(C)=O)c2)C[C@@H]2CC[C@H]1N2C | -5.9% | – | 18.4 µM [rising, single point]
Cn1cc(C(O)CN2CCCCC2)c2ccccc21 (centres undefined) | 24.2% | – | 29.1 µM [rising, single point]
C1CCC2S[C@H]3CCCCC3NC2C1 (some centres undefined) | 3.67% | 0.103 µM [rising, full curve, poor fit] | 0.116 µM [rising, full curve, poor fit]
COCCNC(=O)CN1C2CCC1CC(O)(c1cccnc1)C2 (centres undefined) | 8.8% | – | 5.8 µM [rising, single point]
CN(C)CCNC(=O)c1cccn(Cc2cc(C(F)(F)F)cc(C(F)(F)F)c2)c1=O | 44.9% | 20.6 µM [rising, single point] | –

Source: PubChem BioAssay AID2685 (National Center for Advancing Translational Sciences (NCATS), 2010)
